Assay results: publication PMC6661058
No signal at the amounts used counts as a negative. Protein sequences can lack the tags named with them.

Target: T1, CepR (His-tagged response regulator) (Streptomyces clavuligerus F613-1) (UniProt E2PWN2)
T1 sequence (looked up): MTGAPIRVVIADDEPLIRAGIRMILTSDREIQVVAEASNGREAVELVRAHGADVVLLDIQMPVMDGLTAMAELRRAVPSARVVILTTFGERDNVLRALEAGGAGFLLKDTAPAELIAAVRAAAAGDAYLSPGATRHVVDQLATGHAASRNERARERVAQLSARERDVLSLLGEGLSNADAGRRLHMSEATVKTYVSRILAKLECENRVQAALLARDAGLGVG
Assay: EMSA
Conditions: 1.0 ug poly(dI-dC), EMSA with 0.5-3.0 ug His-CepR and 1.0 ug poly(dI-dC), pH and temperature not given (as in Fu et al. 2019; Zhang et al. 2015), recombinant protein, residues 3-224, probe letters rebuilt from the primers and the genome

| Sequence | binding result (3.0 ug CepR) | binding result (0.5-3.0 ug CepR, shift almost abrogated by 100-fold unlabeled P3) |
| --- | --- | --- |
| CCCAGTCGGCTACCGCCATGTCAACGCATCTCCCGCAAATCCAGAAGAACAGTCAATTCAGTGCAGCCATCGAAATTCGATCGGCCCGATGCAGCGTAGCAGTCATGACTCGATCTCGAACAGGAAGATTTTCTGTCCGCTTCGGAAAAATAGCGAAGAGATTCTGAAGACCAGCCGAAGAGCACTTCAAGAGTCCTGTCGTCCAGCATAGGTAGCCCACATTATGCAGTAAACCGTCCGGGCTGCTCGGCATTTGAATCTTTCGACCTTTTGTCCCGCTCCACAGGAGTTATCACCCATGGGTGCACAACGGCG (double strand) [cefD-cmcI intergenic P2] | no binding |  |
| TGCGGCGATCGGACGACCATCGATTGATGGTCCGCCGGCGGTCGATCGGCGGTCGGGCGACAGAGGTATGAACCAGTGTCAGGCGCCGCTCTGGACAGTACACTCCAGGCCGGTGAAGGAACTGTCAAGACCCGGTGATCACGGCCTTTACAAGATGTGGTCCAGGTGCCGCATGCATCACGCAACCATCGATCTCGACCAGAAGTTGAGATCGATGGAAAATGAGTCATGAAATGGCCTAATCTGCACGCCTAGCCCGCTCTGACCTGCTGCTTTAGCAGCTCGGAGACGTGGGCGGCGCCGTTGTGCACCCATGGG (double strand) [cefD-cmcI intergenic P3] |  | binds |
